This is one part of the list. Most entries show no effect beyond the scatter of the controls.

Sequences of proteins named here, by UniProt entry; tags and fusion partners are left off. A change or cut given only in a name is not applied to a line headed by its entry.
UniProt Q8NC51: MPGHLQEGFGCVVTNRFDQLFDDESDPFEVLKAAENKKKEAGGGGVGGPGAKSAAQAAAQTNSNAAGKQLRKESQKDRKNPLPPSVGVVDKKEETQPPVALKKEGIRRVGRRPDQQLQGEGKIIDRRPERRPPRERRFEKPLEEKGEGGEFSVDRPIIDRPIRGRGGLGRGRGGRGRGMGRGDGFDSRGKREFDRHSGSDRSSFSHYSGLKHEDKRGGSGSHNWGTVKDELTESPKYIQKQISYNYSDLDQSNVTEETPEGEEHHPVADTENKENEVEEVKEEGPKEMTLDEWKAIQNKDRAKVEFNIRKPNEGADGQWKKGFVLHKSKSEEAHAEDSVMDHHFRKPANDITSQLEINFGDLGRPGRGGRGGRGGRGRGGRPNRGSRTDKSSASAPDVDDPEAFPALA
UniProt Q8NA75: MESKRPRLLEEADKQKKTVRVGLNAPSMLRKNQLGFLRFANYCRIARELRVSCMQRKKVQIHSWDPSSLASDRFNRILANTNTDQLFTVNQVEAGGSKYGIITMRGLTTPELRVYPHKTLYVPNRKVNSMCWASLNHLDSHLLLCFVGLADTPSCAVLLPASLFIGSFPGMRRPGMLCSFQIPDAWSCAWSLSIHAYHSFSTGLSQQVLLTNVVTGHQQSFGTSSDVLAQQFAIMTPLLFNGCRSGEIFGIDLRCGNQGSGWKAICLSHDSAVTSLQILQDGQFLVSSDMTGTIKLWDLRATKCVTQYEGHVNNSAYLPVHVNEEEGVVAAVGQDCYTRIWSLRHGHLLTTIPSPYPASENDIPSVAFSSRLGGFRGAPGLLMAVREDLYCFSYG
UniProt Q8NB90: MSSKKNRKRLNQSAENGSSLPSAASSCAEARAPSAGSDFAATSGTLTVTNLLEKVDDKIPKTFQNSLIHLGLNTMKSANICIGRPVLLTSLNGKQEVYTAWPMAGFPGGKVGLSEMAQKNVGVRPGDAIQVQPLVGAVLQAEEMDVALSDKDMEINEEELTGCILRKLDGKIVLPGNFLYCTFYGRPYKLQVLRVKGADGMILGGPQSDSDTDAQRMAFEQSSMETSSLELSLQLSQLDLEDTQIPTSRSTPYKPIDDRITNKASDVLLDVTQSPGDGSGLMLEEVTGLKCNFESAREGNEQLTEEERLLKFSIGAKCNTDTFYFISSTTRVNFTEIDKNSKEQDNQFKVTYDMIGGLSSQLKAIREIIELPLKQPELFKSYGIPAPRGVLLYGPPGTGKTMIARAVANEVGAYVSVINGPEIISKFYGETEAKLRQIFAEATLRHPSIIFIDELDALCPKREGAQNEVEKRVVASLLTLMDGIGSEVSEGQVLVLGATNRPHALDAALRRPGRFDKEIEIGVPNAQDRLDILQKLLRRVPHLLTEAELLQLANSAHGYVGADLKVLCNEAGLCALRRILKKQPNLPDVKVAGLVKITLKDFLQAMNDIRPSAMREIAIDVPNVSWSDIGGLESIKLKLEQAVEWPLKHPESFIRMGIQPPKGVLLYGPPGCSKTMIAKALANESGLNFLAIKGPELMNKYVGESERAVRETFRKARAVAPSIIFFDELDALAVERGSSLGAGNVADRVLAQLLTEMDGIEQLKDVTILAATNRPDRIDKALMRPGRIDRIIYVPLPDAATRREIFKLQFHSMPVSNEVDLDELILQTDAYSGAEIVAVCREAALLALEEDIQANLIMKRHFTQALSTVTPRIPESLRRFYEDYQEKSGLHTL
UniProt Q8N3C0, whole entry: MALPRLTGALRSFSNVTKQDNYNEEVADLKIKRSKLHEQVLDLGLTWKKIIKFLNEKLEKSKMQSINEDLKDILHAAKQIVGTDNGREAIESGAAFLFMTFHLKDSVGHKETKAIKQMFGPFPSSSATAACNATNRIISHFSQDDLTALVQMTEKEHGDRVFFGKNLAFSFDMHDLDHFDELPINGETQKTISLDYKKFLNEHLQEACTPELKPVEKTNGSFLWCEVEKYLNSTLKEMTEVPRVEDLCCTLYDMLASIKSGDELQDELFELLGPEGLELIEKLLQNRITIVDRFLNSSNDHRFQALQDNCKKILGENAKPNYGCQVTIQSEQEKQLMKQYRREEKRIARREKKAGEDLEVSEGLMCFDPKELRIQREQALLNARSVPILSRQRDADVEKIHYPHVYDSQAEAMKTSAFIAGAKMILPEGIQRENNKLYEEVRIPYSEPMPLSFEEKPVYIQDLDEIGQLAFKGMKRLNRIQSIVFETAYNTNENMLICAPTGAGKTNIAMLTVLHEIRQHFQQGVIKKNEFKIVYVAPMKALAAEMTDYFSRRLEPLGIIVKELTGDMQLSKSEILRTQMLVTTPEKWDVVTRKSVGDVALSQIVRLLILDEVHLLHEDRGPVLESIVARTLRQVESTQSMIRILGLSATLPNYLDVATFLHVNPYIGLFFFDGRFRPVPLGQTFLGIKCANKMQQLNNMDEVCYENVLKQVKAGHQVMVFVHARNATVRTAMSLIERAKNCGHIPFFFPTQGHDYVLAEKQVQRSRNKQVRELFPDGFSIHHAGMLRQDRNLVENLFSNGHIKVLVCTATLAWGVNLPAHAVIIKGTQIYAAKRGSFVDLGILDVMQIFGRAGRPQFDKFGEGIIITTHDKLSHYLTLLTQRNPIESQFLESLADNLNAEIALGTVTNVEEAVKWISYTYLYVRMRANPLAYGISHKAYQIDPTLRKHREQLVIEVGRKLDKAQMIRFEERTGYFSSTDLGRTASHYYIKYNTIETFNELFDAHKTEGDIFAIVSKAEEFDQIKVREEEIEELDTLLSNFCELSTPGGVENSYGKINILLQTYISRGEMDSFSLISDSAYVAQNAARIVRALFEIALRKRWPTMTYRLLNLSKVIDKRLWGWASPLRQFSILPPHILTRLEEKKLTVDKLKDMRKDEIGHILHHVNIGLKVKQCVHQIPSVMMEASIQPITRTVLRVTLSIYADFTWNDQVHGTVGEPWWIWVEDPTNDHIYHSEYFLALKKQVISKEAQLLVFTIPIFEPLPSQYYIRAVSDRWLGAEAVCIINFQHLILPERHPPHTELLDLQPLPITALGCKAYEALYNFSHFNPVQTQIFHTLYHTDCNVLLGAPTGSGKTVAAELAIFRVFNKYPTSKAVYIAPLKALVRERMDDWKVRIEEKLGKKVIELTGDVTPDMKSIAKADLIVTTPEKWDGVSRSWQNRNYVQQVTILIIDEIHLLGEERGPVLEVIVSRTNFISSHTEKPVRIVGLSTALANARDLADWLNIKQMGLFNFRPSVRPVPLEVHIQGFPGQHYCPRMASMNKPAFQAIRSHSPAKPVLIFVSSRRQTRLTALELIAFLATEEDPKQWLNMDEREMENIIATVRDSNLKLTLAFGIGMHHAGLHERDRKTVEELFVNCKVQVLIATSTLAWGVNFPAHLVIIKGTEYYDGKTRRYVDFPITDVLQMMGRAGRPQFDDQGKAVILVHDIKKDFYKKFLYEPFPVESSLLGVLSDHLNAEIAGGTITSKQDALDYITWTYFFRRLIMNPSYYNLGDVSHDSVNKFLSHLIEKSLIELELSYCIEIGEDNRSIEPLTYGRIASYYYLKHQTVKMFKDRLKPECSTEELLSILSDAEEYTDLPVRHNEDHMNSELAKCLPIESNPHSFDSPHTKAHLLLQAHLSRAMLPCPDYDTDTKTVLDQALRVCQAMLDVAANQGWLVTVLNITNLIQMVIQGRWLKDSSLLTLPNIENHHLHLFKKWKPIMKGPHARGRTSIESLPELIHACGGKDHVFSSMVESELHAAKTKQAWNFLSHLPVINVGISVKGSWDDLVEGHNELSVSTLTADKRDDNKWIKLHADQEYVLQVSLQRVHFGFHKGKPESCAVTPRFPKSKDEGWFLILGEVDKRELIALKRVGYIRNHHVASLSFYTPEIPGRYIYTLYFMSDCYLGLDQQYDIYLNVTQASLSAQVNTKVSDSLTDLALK
UniProt Q8N7X4: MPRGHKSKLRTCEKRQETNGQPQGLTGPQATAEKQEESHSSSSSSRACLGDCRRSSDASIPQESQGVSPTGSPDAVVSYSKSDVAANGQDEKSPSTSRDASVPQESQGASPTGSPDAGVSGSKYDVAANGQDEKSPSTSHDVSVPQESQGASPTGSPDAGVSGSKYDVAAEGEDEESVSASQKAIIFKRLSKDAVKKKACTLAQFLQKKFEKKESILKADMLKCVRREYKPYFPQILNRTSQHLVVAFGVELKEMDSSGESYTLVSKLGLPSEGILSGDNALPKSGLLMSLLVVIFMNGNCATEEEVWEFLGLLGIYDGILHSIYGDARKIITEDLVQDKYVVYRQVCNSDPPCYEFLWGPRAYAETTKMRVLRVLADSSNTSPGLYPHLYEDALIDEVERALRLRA
UniProt Q8NBI5: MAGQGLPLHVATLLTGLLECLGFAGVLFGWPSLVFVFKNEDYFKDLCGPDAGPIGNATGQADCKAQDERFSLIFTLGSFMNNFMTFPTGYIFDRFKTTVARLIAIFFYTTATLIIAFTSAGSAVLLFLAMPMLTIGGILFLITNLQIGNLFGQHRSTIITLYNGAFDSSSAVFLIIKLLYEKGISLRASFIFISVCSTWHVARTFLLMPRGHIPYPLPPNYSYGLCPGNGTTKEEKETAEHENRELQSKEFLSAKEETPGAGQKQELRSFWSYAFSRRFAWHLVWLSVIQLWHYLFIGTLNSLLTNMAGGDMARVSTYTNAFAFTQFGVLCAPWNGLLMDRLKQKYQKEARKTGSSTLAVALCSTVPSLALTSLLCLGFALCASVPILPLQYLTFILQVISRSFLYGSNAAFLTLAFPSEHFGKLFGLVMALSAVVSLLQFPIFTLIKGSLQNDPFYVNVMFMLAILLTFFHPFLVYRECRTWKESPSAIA
UniProt Q8N1G4: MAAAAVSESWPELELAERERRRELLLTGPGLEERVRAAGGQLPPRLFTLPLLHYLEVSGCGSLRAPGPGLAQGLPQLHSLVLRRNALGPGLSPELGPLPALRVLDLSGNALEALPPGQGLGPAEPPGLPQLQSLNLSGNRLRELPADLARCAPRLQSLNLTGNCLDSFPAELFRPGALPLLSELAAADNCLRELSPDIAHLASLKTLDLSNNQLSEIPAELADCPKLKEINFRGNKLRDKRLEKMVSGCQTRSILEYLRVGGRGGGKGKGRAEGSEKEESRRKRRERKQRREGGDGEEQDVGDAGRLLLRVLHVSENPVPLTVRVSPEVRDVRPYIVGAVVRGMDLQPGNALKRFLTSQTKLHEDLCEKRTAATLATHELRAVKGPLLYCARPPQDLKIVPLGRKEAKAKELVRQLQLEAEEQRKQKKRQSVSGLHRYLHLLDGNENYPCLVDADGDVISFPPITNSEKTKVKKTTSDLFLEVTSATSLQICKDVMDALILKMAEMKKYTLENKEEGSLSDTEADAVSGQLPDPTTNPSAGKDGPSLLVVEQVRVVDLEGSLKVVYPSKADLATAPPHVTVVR
UniProt Q8N531: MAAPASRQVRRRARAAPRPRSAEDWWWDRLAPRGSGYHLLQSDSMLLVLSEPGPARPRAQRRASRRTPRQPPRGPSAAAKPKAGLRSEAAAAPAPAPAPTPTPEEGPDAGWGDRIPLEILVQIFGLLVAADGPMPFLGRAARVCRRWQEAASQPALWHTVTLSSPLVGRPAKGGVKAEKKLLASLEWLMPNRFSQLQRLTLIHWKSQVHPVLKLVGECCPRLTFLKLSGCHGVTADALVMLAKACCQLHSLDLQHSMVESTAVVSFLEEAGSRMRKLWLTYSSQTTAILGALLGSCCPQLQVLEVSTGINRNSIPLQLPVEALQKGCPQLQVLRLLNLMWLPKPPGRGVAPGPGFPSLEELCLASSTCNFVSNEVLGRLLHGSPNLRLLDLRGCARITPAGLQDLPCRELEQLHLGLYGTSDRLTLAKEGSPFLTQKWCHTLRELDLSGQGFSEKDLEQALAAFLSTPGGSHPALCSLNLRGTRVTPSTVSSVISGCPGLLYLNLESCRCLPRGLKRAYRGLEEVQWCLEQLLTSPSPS

Compound in this assay: Cc1nc(Nc2ncc(C(=O)Nc3c(C)cccc3Cl)s2)cc(N2CCN(CCO)CC2)n1 [dasatinib]
Put plainly: log2 fold change of tryptic peptide abundance, ligand vs vehicle (limited proteolysis) (log2 ratio); higher = more trypsin-susceptible (destabilized). The conditions noted are these: ligand concentration: 5 uM; sample: K562 cleared lysate.
Take “SERBP1 (peptide sequence: PGHLQEGFGCVVTNR, peptide start residue: 2) (UniProt Q8NC51)”: the log2 fold change was 0.0823.

As to “DCAF4L2 (peptide sequence: LLEEADKQKK, peptide start residue: 8) (UniProt Q8NA75)”, the log2 fold change is 0.689.

For “SPATA5 (peptide sequence: DFLQAMNDIRPSAMR, peptide start residue: 601) (UniProt Q8NB90)”, the log2 fold change is 0.0957.

For “ASCC3 (peptide sequence: QFSILPPHILTR, peptide start residue: 1129) (UniProt Q8N3C0)”, the log2 fold change was 0.493.

Regarding “UniProt Q8N7X4 (peptide sequence: SDVAANGQDEK, peptide start residue: 82)”, the log2 fold change was 0.038.

Turning to “SLC43A3 (peptide sequence: ETAEHENR, peptide start residue: 237) (UniProt Q8NBI5)”, the log2 fold change is -0.0923.

As to “LRRC47 (peptide sequence: RNALGPGLSPELGPLPALR, peptide start residue: 84) (UniProt Q8N1G4)”, the log2 fold change stood at 0.32.

As for “UniProt Q8N531 (peptide sequence: LSGCHGVTADALVMLAK, peptide start residue: 227)”, the log2 fold change worked out at 0.438.

Values taken from the supplement of paper PMC12819154, “High-throughput peptide-centric local stability assay extends protein–ligand identification to membrane proteins, tissues and bacteria” (Nature Structural & Molecular Biology, 2025).
